Reference: PMC12059209

Sequences of proteins named here, by UniProt entry; tags and fusion partners are left off.
UniProt O15265: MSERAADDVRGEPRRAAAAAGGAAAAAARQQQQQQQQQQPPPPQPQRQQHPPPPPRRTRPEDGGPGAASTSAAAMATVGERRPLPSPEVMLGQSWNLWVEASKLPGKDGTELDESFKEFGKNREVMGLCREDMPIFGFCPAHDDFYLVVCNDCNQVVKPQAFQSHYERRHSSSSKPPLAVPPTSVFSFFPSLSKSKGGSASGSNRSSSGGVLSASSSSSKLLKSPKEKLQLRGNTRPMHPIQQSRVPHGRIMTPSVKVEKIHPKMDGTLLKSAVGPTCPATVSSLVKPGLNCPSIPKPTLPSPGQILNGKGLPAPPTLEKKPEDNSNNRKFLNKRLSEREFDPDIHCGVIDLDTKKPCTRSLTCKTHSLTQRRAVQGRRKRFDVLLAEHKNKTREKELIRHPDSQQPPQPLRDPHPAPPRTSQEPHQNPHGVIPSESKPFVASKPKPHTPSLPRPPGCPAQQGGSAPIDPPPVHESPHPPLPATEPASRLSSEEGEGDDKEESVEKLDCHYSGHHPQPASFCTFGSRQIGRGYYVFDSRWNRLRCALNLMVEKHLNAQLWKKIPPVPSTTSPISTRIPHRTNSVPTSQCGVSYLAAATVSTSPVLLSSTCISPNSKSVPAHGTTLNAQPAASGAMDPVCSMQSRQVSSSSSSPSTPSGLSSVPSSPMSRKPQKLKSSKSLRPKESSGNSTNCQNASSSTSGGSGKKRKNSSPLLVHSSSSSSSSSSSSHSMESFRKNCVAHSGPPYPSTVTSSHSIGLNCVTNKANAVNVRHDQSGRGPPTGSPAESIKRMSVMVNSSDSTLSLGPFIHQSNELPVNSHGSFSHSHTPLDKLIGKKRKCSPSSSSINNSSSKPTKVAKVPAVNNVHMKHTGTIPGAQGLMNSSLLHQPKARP
UniProt Q8NEM7: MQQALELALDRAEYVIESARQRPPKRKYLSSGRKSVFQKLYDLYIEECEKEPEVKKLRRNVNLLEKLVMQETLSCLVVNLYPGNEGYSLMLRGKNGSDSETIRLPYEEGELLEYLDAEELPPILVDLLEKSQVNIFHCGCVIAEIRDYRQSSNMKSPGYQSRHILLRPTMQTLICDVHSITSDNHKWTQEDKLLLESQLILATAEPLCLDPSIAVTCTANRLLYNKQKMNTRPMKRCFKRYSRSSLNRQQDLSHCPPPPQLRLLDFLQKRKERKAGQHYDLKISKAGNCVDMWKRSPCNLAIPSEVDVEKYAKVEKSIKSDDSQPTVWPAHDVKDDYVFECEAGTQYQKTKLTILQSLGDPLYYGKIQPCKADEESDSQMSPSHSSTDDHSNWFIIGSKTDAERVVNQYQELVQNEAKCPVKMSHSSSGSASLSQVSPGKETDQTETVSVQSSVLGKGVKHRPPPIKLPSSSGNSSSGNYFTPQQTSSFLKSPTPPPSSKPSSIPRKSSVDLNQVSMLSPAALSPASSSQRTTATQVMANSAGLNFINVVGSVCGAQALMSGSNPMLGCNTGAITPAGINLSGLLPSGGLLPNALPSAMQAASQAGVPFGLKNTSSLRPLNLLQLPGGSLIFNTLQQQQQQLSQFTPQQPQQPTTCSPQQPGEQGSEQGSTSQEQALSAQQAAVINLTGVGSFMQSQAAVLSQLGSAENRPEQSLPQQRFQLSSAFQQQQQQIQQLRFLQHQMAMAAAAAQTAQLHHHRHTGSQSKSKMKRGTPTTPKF
UniProt P21127: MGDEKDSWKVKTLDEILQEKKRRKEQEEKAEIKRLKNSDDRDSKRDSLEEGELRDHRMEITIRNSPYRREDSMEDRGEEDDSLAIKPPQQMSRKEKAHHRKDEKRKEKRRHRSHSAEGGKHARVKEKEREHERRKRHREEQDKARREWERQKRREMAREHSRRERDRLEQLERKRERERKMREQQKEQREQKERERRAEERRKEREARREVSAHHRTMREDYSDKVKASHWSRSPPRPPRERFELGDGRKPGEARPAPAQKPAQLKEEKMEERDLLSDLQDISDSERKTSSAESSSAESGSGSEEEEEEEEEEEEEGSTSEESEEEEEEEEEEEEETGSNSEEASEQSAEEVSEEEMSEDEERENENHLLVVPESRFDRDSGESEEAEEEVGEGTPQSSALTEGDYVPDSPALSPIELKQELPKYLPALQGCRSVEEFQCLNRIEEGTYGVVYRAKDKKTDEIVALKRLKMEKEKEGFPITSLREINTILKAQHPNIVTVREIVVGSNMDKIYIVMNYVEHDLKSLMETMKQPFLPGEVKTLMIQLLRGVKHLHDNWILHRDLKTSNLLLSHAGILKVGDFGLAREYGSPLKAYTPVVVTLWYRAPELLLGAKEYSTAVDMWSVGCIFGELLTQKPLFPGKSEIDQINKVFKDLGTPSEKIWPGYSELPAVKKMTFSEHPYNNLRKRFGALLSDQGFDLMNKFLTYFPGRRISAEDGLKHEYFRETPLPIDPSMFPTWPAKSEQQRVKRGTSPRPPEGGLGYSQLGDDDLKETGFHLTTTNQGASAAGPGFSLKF

T1: Flag-USP22 (ubiquitin-specific protease 22, full length) (UniProt Q9UPT9)
T1 sequence: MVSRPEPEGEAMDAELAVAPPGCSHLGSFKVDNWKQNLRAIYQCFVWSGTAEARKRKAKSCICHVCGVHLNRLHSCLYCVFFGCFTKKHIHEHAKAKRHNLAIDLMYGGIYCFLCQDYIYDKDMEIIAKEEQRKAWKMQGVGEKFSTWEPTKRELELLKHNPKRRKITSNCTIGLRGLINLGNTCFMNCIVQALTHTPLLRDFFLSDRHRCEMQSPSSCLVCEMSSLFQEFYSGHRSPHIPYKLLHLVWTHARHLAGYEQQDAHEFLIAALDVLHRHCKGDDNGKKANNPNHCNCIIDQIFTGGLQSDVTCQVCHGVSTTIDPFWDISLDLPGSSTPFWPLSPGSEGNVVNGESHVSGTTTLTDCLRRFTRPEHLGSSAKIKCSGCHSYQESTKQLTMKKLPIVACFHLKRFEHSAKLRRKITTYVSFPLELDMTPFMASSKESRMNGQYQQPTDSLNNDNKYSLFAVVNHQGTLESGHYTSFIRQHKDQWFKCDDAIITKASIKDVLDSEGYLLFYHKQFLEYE

B1: ENY2 (protein, UniProt Q9NPA8 1-101)
chain: MVVSKMNKDAQMRAAINQKLIETGERERLKELLRAKLIECGWKDQLKAHCKEVIKEKGLEHVTVDDLVAEITPKGRALVPDSVKKELLQRIRTFLAQHASL

Each molecule was assayed against T1, Flag-USP22 (ubiquitin-specific protease 22, full length) (assay: affinity purification with mass spectrometry; lysate of HEK-293FT cells transfected with Flag-USP22 (48 h) on anti-Flag M2 gel at 4°C overnight; 50 mM Tris-HCl pH 7.4, 150 mM NaCl, 1 mM EDTA, 0.5% Triton X-100; eluted with Flag peptide, SDS-PAGE, silver stain, bands analysed by LC-MS).

binding | Molecule
binds | ATXN7 (from UniProt O15265 1-892)
binds | SUPT20H (from UniProt Q8NEM7 1-779)
binds | cyclin-dependent kinase 11B (CDK11B), endogenous (from UniProt P21127 1-795)
binds | B1

No constants are given. Whether binding was seen depends on the method and setting. In cells and extracts the contact can be indirect. Here binding means that the protein was enriched with, or labelled near, the bait; the list need not be complete. Sequences can lack the tags named with a protein.
